The values that follow come from article PMC7871608.

Protein sequences, listed by entry. Tags and fused reporters are not part of them. Residues count along the entry.
UniProt Q96AY3, residues 27-582: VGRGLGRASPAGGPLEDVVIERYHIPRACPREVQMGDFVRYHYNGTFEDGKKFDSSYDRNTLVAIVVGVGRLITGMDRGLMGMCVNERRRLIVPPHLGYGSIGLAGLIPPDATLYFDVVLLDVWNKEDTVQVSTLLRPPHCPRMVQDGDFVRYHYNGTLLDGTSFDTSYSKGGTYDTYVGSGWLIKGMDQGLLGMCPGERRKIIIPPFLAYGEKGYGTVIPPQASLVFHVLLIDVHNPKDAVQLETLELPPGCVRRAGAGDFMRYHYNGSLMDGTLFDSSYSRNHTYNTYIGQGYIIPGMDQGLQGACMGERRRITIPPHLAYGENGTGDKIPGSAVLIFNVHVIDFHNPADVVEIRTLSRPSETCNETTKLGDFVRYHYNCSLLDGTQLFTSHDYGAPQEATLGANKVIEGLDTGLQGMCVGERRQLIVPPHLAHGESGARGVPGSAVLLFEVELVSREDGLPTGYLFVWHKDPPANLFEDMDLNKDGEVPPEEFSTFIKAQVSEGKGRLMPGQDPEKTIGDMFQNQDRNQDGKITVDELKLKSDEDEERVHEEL

This test concerns the target FK506 binding protein 10 (human (endogenous in U118MG and LN229)) (UniProt Q96AY3). Description: co-IP; endogenous proteins; non-denaturing lysate of U118MG and LN229 cells; anti-FKBP10 or anti-Hsp47 antibody on protein G agarose, 4 °C overnight, washed with PBST, western blot. A general note: Immunoblotting shows a protein as a band on a membrane.

These are yes or no findings as the source states them, for the method shown. In cells and extracts the contact can be indirect. Some binding calls cover weakened binding; strength is not graded here.

B1: Heat shock protein 47 (protein, UniProt P50454 19-418)
chain: AEVKKPAAAAAPGTAEKLSPKAATLAERSAGLAFSLYQAMAKDQAVENILVSPVVVASSLGLVSLGGKATTASQAKAVLSAEQLRDEEVHAGLGELLRSLSNSTARNVTWKLGSRLYGPSSVSFADDFVRSSKQHYNCEHSKINFRDKRSALQSINEWAAQTTDGKLPEVTKDVERTDGALLVNAMFFKPHWDEKFHHKMVDNRGFMVTRSYTVGVMMMHRTGLYNYYDDEKEKLQIVEMPLAHKLSSLIILMPHHVEPLERLEKLLTKEQLKIWMGKMQKKAVAISLPKGVVEVTHDLQKHLAGLGLTEAIDKNKADLSRMSGKKDLYLASVFHATAFELDTDGNPFDQDIYGREELRSPKLFYADHPFIFLVRDTQSGSLLFIGRLVRPKGDKMRDEL
For B1, the binding entry is “binds”.
